Experimental data reported in article PMC9531947, “Targeting A-kinase anchoring protein 12 phosphorylation in hepatic stellate cells regulates liver injury and fibrosis in mouse models” (eLife, 2022).
Results are given in words; binding and its absence hold for the method and conditions named. For part of these data: In cells and extracts the contact can be indirect. Some binding calls cover weakened binding; strength is not graded here.

Protein sequences, listed by entry. Tags and fused reporters are not part of them. Lines headed by an entry give the natural chain unless they say otherwise; changes in a name come on top. Residues count along the entry.
UniProt Q9WTQ5: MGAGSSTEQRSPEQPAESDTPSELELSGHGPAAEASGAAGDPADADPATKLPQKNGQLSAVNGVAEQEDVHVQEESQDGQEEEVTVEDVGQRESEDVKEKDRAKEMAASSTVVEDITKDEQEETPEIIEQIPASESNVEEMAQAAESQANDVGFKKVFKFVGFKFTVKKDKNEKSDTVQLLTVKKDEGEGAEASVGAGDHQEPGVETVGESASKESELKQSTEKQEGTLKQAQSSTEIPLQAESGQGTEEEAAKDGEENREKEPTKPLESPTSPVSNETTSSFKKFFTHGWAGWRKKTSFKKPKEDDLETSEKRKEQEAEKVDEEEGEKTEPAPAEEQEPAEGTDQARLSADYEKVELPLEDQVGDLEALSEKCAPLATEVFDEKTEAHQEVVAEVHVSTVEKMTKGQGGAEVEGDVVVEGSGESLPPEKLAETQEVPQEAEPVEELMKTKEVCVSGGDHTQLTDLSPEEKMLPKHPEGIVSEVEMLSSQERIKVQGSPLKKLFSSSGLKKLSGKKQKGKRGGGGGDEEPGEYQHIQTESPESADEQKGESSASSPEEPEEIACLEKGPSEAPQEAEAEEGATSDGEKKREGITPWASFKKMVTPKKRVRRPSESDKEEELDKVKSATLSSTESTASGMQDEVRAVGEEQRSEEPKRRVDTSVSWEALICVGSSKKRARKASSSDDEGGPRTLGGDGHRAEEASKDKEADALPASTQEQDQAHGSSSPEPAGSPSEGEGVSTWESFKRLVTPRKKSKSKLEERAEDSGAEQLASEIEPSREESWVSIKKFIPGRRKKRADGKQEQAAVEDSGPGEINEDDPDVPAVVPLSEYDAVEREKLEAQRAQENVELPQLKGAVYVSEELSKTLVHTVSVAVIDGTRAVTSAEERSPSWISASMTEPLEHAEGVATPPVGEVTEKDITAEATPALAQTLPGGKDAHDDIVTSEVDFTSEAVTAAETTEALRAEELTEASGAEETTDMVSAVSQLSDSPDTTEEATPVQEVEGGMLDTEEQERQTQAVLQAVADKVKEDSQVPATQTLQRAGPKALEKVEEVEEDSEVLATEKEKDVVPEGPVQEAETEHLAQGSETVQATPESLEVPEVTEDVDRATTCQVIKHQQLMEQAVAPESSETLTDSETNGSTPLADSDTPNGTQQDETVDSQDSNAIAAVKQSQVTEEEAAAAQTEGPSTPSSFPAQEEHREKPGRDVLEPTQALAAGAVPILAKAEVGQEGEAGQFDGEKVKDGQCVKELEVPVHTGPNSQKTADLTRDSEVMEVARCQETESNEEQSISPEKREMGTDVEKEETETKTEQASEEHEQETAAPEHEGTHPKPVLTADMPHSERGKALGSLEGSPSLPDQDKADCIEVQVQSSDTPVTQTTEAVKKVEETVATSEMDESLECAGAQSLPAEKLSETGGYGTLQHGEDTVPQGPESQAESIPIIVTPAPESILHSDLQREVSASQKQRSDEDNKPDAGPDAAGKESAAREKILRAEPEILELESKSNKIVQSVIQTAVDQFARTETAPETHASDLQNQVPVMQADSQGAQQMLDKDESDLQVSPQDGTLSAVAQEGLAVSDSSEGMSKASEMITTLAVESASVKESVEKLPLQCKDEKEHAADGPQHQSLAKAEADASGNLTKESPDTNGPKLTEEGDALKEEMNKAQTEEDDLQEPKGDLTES
UniProt Q02952: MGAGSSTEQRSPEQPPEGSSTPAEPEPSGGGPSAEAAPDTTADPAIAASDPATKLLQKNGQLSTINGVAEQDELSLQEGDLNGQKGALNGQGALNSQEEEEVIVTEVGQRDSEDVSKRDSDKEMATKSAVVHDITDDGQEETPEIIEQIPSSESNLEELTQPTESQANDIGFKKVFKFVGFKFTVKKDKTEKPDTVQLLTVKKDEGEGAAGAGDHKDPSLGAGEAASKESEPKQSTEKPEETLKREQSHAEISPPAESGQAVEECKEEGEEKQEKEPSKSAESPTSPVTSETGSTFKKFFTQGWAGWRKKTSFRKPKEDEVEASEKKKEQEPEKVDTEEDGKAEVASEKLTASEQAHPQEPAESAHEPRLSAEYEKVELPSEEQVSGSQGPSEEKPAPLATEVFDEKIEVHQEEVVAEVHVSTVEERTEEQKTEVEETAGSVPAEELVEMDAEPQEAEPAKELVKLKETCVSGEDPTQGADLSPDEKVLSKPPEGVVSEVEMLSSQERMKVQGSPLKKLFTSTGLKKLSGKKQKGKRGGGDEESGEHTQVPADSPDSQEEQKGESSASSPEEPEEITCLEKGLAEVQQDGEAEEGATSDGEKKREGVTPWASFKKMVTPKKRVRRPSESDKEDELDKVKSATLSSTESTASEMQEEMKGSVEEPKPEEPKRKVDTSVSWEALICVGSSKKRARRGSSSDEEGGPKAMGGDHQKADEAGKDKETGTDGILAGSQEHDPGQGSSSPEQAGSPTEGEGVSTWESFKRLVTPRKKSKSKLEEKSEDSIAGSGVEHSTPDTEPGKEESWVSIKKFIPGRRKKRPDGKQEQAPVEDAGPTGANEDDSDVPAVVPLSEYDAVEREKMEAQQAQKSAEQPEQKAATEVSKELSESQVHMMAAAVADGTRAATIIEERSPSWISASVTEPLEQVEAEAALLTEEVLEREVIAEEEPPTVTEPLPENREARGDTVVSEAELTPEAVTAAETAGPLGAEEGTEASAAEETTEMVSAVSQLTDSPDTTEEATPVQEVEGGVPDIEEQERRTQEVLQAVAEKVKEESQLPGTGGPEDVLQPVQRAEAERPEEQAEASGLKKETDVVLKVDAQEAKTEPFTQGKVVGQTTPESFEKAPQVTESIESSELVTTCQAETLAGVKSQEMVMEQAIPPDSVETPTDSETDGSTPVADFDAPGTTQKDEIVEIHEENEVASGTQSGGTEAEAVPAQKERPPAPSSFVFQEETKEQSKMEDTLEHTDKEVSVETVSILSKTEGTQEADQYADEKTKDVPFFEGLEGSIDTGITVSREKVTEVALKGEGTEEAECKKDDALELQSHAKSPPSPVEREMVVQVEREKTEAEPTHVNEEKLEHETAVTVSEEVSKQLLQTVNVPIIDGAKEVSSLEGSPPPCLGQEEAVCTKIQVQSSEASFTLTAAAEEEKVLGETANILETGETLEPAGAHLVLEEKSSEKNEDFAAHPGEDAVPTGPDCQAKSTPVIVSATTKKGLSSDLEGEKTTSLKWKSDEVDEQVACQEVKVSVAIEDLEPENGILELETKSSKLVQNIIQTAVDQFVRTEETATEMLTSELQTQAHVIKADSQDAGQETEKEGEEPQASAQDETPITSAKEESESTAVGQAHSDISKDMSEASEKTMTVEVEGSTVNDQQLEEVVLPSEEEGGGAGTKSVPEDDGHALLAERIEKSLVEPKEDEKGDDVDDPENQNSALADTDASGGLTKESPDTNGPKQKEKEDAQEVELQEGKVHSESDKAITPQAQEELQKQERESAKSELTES
UniProt Q9EQY0, residues 21-977: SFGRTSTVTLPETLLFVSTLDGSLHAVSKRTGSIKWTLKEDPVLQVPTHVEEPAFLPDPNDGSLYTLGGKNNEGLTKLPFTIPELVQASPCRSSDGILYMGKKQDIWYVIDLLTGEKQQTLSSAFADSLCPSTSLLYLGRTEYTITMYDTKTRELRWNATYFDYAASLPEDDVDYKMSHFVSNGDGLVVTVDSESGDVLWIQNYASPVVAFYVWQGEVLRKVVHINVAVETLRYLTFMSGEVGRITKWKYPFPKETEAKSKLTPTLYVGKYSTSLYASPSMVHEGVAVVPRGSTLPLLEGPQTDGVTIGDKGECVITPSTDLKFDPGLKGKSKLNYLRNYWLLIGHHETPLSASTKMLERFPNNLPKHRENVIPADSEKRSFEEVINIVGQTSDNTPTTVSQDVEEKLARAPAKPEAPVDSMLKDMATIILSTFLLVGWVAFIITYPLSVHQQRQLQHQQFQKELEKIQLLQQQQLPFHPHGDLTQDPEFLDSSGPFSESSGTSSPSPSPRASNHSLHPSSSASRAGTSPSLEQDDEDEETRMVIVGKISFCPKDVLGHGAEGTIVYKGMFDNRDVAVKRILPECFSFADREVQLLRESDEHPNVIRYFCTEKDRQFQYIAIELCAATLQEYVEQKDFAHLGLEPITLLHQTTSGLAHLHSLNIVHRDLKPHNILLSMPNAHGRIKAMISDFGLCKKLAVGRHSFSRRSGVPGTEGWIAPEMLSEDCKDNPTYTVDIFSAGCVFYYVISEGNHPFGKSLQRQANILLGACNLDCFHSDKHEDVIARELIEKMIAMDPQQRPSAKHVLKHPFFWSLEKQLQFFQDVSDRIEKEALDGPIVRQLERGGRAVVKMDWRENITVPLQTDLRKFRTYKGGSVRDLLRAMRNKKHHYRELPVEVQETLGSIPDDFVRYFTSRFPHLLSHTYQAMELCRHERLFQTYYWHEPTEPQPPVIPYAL

Legend:
[1] = molecular target: T1, heat-shock protein 47 (HSP47), mouse, endogenous (mouse (endogenous in liver and HSCs of C57BL/6 mice)) (UniProt P19324); assay: proximity ligation; mouse liver sections (oil or CCl4; EV, PDEL or PMUT CRISPR), PLA co-stained with the HSC marker desmin
T1 sequence: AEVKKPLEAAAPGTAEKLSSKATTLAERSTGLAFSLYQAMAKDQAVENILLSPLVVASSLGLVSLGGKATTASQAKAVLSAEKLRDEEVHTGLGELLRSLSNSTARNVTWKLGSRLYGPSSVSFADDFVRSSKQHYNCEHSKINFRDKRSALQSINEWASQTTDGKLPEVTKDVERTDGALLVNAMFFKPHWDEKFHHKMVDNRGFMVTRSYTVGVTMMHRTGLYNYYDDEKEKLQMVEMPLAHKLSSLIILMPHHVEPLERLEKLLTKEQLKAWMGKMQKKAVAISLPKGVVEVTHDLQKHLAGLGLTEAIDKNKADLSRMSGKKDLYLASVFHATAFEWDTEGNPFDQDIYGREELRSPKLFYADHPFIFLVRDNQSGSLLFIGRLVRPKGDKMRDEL

[2] = molecular target: T1, heat-shock protein 47 (HSP47), mouse, endogenous (mouse (endogenous in liver and HSCs of C57BL/6 mice)); assay: co-IP; HSCs isolated from livers of the AKAP12 PDEL CRISPR model (oil+EV, oil+CR, CCl4+EV, CCl4+CR); co-immunoprecipitation and western blot
[3] = molecular target: A-kinase anchoring protein 12 (AKAP12), mouse, endogenous (mouse (endogenous in liver and HSCs of C57BL/6 mice)) (UniProt Q9WTQ5); assay: proximity ligation; mouse liver sections (oil or CCl4; EV, PDEL or PMUT CRISPR), PLA co-stained with the HSC marker desmin
[4] = molecular target: A-kinase anchoring protein 12 (AKAP12), mouse, endogenous (mouse (endogenous in liver and HSCs of C57BL/6 mice)) (UniProt Q9WTQ5); assay: co-IP; mouse liver protein (oil or CCl4 mice; EV, PDEL or PMUT CRISPR AAV); 200 µg pre-cleared protein with 2 µg antibody; AKAP12 antibody and HSP47 blot, or HSP47 antibody and collagen blot; normal mouse IgG as negative control
[5] = molecular target: A-kinase anchoring protein 12 (AKAP12), human, endogenous (human (endogenous in primary HSCs and liver tissue)) (UniProt Q02952); assay: proximity ligation; cultured activated human HSCs, WT or HDR, fixed and permeabilised; PLA co-stained with the ER marker calreticulin
[6] = molecular target: AKAP12 with its five activation-responsive phospho-sites deleted by CRISPR-directed HDR, human HSCs (human (endogenous locus in primary HSCs, edited)) (UniProt Q02952); assay: as above
[7] = molecular target: A-kinase anchoring protein 12 (AKAP12), human, endogenous (human (endogenous in primary HSCs and liver tissue)) (UniProt Q02952); assay: proximity ligation; human liver tissue array (11 normal, 16 liver fibrosis tissues), paraffin sections, AKAP12 and HSP47 far red PLA probes
[8] = molecular target: A-kinase anchoring protein 12 (AKAP12), human, endogenous (human (endogenous in primary HSCs and liver tissue)) (UniProt Q02952); assay: co-IP; extracts of primary human HSCs (cultured 0, 3 or 6 days; WT or CRISPR-edited HDR cells; negative control or Prkca siRNA A or B); AKAP12-HSP47 co-immunoprecipitation and western blot
[9] = molecular target: biotinylated recombinant AKAP12 (human, in vitro translated) (human) (UniProt Q02952); assay: co-IP; recombinant system without active PKCα: biotin-antibody column with bound biotinylated AKAP12 treated with recombinant HSP47 (HSP47 blot), and reverse IP on an HSP47-antibody column with bound HSP47 treated with biotinylated AKAP12 (streptavidin-HRP); both purified

Q: Which binding [1] does the source give for “inositol-requiring enzyme 1 alpha (IRE1α), mouse, endogenous (from UniProt Q9EQY0 21-977)” here?
A: binds

Q: And the binding [2]?
A: binds

B1: heat-shock protein 47 (HSP47), mouse, endogenous (protein, UniProt P19324 18-417)
chain: AEVKKPLEAAAPGTAEKLSSKATTLAERSTGLAFSLYQAMAKDQAVENILLSPLVVASSLGLVSLGGKATTASQAKAVLSAEKLRDEEVHTGLGELLRSLSNSTARNVTWKLGSRLYGPSSVSFADDFVRSSKQHYNCEHSKINFRDKRSALQSINEWASQTTDGKLPEVTKDVERTDGALLVNAMFFKPHWDEKFHHKMVDNRGFMVTRSYTVGVTMMHRTGLYNYYDDEKEKLQMVEMPLAHKLSSLIILMPHHVEPLERLEKLLTKEQLKAWMGKMQKKAVAISLPKGVVEVTHDLQKHLAGLGLTEAIDKNKADLSRMSGKKDLYLASVFHATAFEWDTEGNPFDQDIYGREELRSPKLFYADHPFIFLVRDNQSGSLLFIGRLVRPKGDKMRDEL
Q: B1 was tested. Which binding [3] did it give?
A: binds

Q: What about the binding [4] of the same molecule?
A: binds

B2: heat-shock protein 47 (HSP47), human, endogenous (natural protein, UniProt P50454 19-418, looked up)
chain: AEVKKPAAAAAPGTAEKLSPKAATLAERSAGLAFSLYQAMAKDQAVENILVSPVVVASSLGLVSLGGKATTASQAKAVLSAEQLRDEEVHAGLGELLRSLSNSTARNVTWKLGSRLYGPSSVSFADDFVRSSKQHYNCEHSKINFRDKRSALQSINEWAAQTTDGKLPEVTKDVERTDGALLVNAMFFKPHWDEKFHHKMVDNRGFMVTRSYTVGVMMMHRTGLYNYYDDEKEKLQIVEMPLAHKLSSLIILMPHHVEPLERLEKLLTKEQLKIWMGKMQKKAVAISLPKGVVEVTHDLQKHLAGLGLTEAIDKNKADLSRMSGKKDLYLASVFHATAFELDTDGNPFDQDIYGREELRSPKLFYADHPFIFLVRDTQSGSLLFIGRLVRPKGDKMRDEL
notes: heat-shock protein 47 (HSP47), ER-resident collagen chaperone, human, endogenous in primary HSCs and liver tissue; source: endogenous, primary human HSC extracts and fixed cells; human liver tissue array
Q: For B2, which binding [5] is on record?
A: binds weakly

Q: What about the binding [6] of the same molecule?
A: binds

Q: And the binding [7]?
A: binds

Q: What about the binding [8] of the same molecule?
A: binds

B3: HSP47 recombinant, human (protein, UniProt P50454 19-418)
chain: AEVKKPAAAAAPGTAEKLSPKAATLAERSAGLAFSLYQAMAKDQAVENILVSPVVVASSLGLVSLGGKATTASQAKAVLSAEQLRDEEVHAGLGELLRSLSNSTARNVTWKLGSRLYGPSSVSFADDFVRSSKQHYNCEHSKINFRDKRSALQSINEWAAQTTDGKLPEVTKDVERTDGALLVNAMFFKPHWDEKFHHKMVDNRGFMVTRSYTVGVMMMHRTGLYNYYDDEKEKLQIVEMPLAHKLSSLIILMPHHVEPLERLEKLLTKEQLKIWMGKMQKKAVAISLPKGVVEVTHDLQKHLAGLGLTEAIDKNKADLSRMSGKKDLYLASVFHATAFELDTDGNPFDQDIYGREELRSPKLFYADHPFIFLVRDTQSGSLLFIGRLVRPKGDKMRDEL
Q: Which binding [9] does the source give for B3 here?
A: binds
